This is one part of the list.

For this assay, the target named is T1, OsSMF1 (Oryza sativa, UniProt Q6ZLB0 1-436).
T1 sequence: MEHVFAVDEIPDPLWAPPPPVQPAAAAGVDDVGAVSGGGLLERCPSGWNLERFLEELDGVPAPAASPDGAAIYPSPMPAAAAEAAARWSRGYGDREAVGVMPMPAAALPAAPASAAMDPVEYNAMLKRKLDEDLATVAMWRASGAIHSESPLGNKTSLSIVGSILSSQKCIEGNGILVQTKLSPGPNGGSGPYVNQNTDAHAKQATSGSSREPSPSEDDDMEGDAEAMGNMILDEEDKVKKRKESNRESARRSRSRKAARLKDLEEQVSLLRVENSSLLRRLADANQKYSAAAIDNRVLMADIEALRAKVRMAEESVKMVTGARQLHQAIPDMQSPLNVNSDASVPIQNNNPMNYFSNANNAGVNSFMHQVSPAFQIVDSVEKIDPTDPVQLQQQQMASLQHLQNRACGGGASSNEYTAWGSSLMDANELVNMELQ
The experiment in a line: protein-binding microarray (RPBM); PBS, 2% BSA, 51.3 ng/ul salmon testes DNA, 50 uM zinc acetate, 200 nM TF, 25 C, 1 h; high values mean tight binding. To be noted: protein: recombinant; tags: N-terminal polyhistidine and DsRed monomer fusion (pET32a); chain copies: 2; label: CyDye5-dUTP incorporated in the synthesized complementary strand; 3' TTTTT single-stranded linker to array surface; dsDNA, one strand shown. In outline: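 For the binding signal, per-feature fluorescence intensity was read in arbitrary units on an Axon 4000B scanner. Before scanning, a 2% BSA-blocked custom Agilent array made double-stranded with Cy5-dUTP was washed after 1 h at 25 °C with 200 nM protein and 50 µM zinc acetate. The proteins were Ni–NTA-purified transcription factors with N-terminal polyhistidine and DsRed fusions, expressed in E. coli BL21-CodonPlus.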
For “TCATTCAAATCTCCCATCTGCCGCTGACGCATGGGGCCATCGGAGTCACCTAGTGCAG”, the binding signal is 3690 fluorescence intensity (a.u.).

“ATAAAGTCCTTATCGGACACTAAACGCACTTTCCTAAAGACGGAGTCACCTAGTGCAG”: the binding signal was 39200 fluorescence intensity (a.u.).

Regarding “CCTCGAACGTGATGTCACTGCTACTGGGCCCTACATCCTCCGGAGTCACCTAGTGCAG”, the binding signal was 13200 fluorescence intensity (a.u.).

As for “CCCTTCGCCTCCGTGGCGCCTCCTCCCTTCTCTCTCCTTCCGGAGTCACCTAGTGCAG”, the binding signal is 3460 fluorescence intensity (a.u.).

As for “CTGCTGCCTTCAGTGATTCAGCAGCATGATTTTGACAGTGCGGAGTCACCTAGTGCAG”, the binding signal is 3390 fluorescence intensity (a.u.).

Turning to “AGAGTGAACTTATTCCAATTTAACACGTGTCTCCTTAGTACGGAGTCACCTAGTGCAG”, the binding signal is 7780 fluorescence intensity (a.u.).

For the sequence “GAGAGGTGTAACTAGTTAGATAGACCCCGTCACGCGCGCGCGGAGTCACCTAGTGCAG”, the binding signal was 5400 fluorescence intensity (a.u.).

In the case of “CTGTTCCTCCGTACTCGTCGCCCGCCACCTCATCCCGCGGCGGAGTCACCTAGTGCAG”, the binding signal was 8610 fluorescence intensity (a.u.).

For “AAACGGAGTTGCTAGAAATATGGCGCCATATGCTACAGTCCGGAGTCACCTAGTGCAG”, the binding signal was 4920 fluorescence intensity (a.u.).

“CTCCTGCTGACGCGCCCCGTCGCCGCCGCTCGCTTGCCGCCGGAGTCACCTAGTGCAG”: the binding signal is 9370 fluorescence intensity (a.u.).

Turning to “GCTCTCCTCGTCAGCTTCAGGTGGTCGGGTGCTGCCTCCTCGGAGTCACCTAGTGCAG”, the binding signal was 6060 fluorescence intensity (a.u.).

In the case of “CCACCTCTCTAGCTTATTTTATGAGAGAGTTCTACACAACCGGAGTCACCTAGTGCAG”, the binding signal was 21800 fluorescence intensity (a.u.).

Take “ATGCTAACATGGCATACAAACCTTTCCGGGCTCCACATATCGGAGTCACCTAGTGCAG”: the binding signal was 3200 fluorescence intensity (a.u.).

As to “TAACTTTGGAACAGGCTGATAAGGGTGGATCCTGCGGTTGCGGAGTCACCTAGTGCAG”, the binding signal is 3440 fluorescence intensity (a.u.).

Take “TGCATTCATGGAGACCGGCGAACACGTCGTCGTGCTGTCGCGGAGTCACCTAGTGCAG”: the binding signal was 3570 fluorescence intensity (a.u.).

In the case of “CAAACATCACTAGTTCTCCTCTATTTTGGTAATATTGACGCGGAGTCACCTAGTGCAG”, the binding signal was 3190 fluorescence intensity (a.u.).

As for “CGATCTCCTCCGAAAATAACGCGAGACCATCCGATCACACCGGAGTCACCTAGTGCAG”, the binding signal is 23600 fluorescence intensity (a.u.).

For the sequence “TCCTCCTTCCTTCCACCTCACCCCAACCCCAACCCCAACCCGGAGTCACCTAGTGCAG”, the binding signal was 4080 fluorescence intensity (a.u.).

Consider “GGAAAAGCCACATAAGCAATTTCCTTTTCTTGGATCACTCCGGAGTCACCTAGTGCAG”, for which the binding signal was 5190 fluorescence intensity (a.u.).

On to “ATGCAGTTTATTCTACTCGCTGGGTACACGTCAGTCAGTGCGGAGTCACCTAGTGCAG”, for which the binding signal is 19000 fluorescence intensity (a.u.).

In the case of “TGCAATTGATTTCACAAACCATGGGAGATGGTGACGTGCACGGAGTCACCTAGTGCAG”, the binding signal was 9920 fluorescence intensity (a.u.).

As for “GCCCCTGCTCCTACGCTGATGCAGTCAGTCATCACTGGTACGGAGTCACCTAGTGCAG”, the binding signal is 3390 fluorescence intensity (a.u.).

Regarding “CAACCCTTCTTGCCTTAATCTACACTCTCATTATATTTAACGGAGTCACCTAGTGCAG”, the binding signal was 36600 fluorescence intensity (a.u.).

With “CATGGGAGATTCCAAGCGCCAGACTGACAGATTGACCTTGCGGAGTCACCTAGTGCAG”, the binding signal is 3230 fluorescence intensity (a.u.).

In the case of “CGGTGTGCGCGTGGTGGTCTGATTCCGATCTGTACTATGTCGGAGTCACCTAGTGCAG”, the binding signal is 4240 fluorescence intensity (a.u.).

Turning to “TCTCCTCTCACCTCGCAATCACATCCTCTTCCCTTCTCTTCGGAGTCACCTAGTGCAG”, the binding signal was 29200 fluorescence intensity (a.u.).

For “GTGATCAGTGTTGACCGTTGACTGACACAGAAACGACAACCGGAGTCACCTAGTGCAG”, the binding signal is 3500 fluorescence intensity (a.u.).

Turning to “TGTCACGAAAATCTTAATATTCATTTGGAGAAAAGAACGGCGGAGTCACCTAGTGCAG”, the binding signal was 49000 fluorescence intensity (a.u.).

In the case of “GTTTCATTTGTTGCCCCTCGAGTCATTATTTGGCGCGGGACGGAGTCACCTAGTGCAG”, the binding signal is 4030 fluorescence intensity (a.u.).

In the case of “ATGATATTTTAAGGCAATTTCTATATAGAAAGTTTTCATACGGAGTCACCTAGTGCAG”, the binding signal was 6600 fluorescence intensity (a.u.).

With “ATATATATATATATATATATATATATATATACAGTTCACACGGAGTCACCTAGTGCAG”, the binding signal is 3240 fluorescence intensity (a.u.).

In the case of “GATTTGCAGTTGCTTAAGTCGCCCAAGTCATCAATCTTCACGGAGTCACCTAGTGCAG”, the binding signal was 3850 fluorescence intensity (a.u.).

Regarding “TCAAAGCGGCGTCACCGGTGAGGTCACGCGCCACCGGCGACGGAGTCACCTAGTGCAG”, the binding signal was 4200 fluorescence intensity (a.u.).

“GCTCGCCGGCCTCACCCTCAATACATGGTGATTCATCCGGCGGAGTCACCTAGTGCAG”: the binding signal is 3660 fluorescence intensity (a.u.).

In the case of “CGATTTGGGAGCAACGTTGACGATCCGACTACAACCTTACCGGAGTCACCTAGTGCAG”, the binding signal was 3810 fluorescence intensity (a.u.).

In the case of “CAGTGGGGATGTCGATTTCATGGCTGACCTGTCAGGTTGCCGGAGTCACCTAGTGCAG”, the binding signal is 5280 fluorescence intensity (a.u.).

On to “GCAGGGCCCCGTGATGCCGCTTCTTGATCCAGGAAAGCTGCGGAGTCACCTAGTGCAG”, for which the binding signal was 3160 fluorescence intensity (a.u.).

Regarding “AACTCTCGGCCTTAGCTCCTACCGTCACTCCCACGTGTGCCGGAGTCACCTAGTGCAG”, the binding signal is 11800 fluorescence intensity (a.u.).

With “GTGGCCAACCGGGGAAAATCGCGAAAGTAGGTCCCTGTCGCGGAGTCACCTAGTGCAG”, the binding signal was 3530 fluorescence intensity (a.u.).

Consider “TTTCTGCGCTACGTGCTCGCCATGTCGTCCTCGTCACAAACGGAGTCACCTAGTGCAG”, for which the binding signal is 5120 fluorescence intensity (a.u.).

With “TCTCGAGCACAATAGTCCACTGTTTCAGCTTCGATGTCGTCGGAGTCACCTAGTGCAG”, the binding signal was 35000 fluorescence intensity (a.u.).

As for “CCAGCATCCAAATCCAACTCACTCGAGCGCGAGCTAGCCCCGGAGTCACCTAGTGCAG”, the binding signal is 3180 fluorescence intensity (a.u.).

Values taken from article PMC7819943, “Rice protein-binding microarrays: a tool to detect cis-acting elements near promoter regions in rice”.
